Paper PMC9842505
Results are given in words; binding and its absence hold for the method and conditions named. Binding seen in cells or lysates may run through a third protein. Some entries that bind do so weakly or less than the wild type.

Protein sequences, listed by entry. Tags and fused reporters are not part of them.
UniProt P25490: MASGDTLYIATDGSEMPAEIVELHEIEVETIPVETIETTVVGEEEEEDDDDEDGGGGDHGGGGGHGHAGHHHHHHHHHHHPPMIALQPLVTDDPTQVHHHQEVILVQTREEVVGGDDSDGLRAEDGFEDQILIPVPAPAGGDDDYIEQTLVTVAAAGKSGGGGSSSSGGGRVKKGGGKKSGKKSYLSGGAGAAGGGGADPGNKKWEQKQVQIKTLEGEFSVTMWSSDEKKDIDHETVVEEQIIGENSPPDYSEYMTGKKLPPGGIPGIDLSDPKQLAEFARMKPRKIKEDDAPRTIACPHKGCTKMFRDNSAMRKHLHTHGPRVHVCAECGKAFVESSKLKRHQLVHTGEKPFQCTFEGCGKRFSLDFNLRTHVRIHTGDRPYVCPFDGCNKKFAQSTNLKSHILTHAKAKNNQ

Biological target: YY1 (human (in lysate of human PCa cell lines)) (UniProt P25490)
Experiment: co-IP; cell lysates in IP lysis buffer, incubated with indicated antibodies and control IgG overnight at 4 °C, beads, western blot

B1: NAP1L2 (protein, UniProt Q9ULW6 1-460)
chain: MAESENRKELSESSQEEAGNQIMVEGLGEHLERGEDAAAGLGDDGKCGEEAAAGLGEEGENGEDTAAGSGEDGKKGGDTDEDSEADRPKGLIGYVLDTDFVESLPVKVKYRVLALKKLQTRAANLESKFLREFHDIERKFAEMYQPLLEKRRQIINAIYEPTEEECEYKSDSEDCDDEEMCHEEMYGNEEGMVHEYVDEDDGYEDYYYDYAVEEEEEEEEEDDIEATGEENKEEEDPKGIPDFWLTVLKNVDTLTPLIKKYDEPILKLLTDIKVKLSDPGEPLSFTLEFHFKPNEYFKNELLTKTYVLKSKLAYYDPHPYRGTAIEYSTGCEIDWNEGKNVTLKTIKKKQKHRIWGTIRTVTEDFPKDSFFNFFSPHGITSNGRDGNDDFLLGHNLRTYIIPRSVLFFSGDALESQQEGVVREVNDAIYDKIIYDNWMAAIEEVKACCKNLEALVEDIDR
With B1 the binding was “binds”.
